# Laboratory results as given in PubChem BioAssay AID1671190 (National Center for Advancing Translational Sciences (NCATS), 2021).
# Protein sequences, listed by entry. Tags and fused reporters are not part of them. Lines headed by an entry give the natural chain unless they say otherwise; changes in a name come on top.
# UniProt P18054: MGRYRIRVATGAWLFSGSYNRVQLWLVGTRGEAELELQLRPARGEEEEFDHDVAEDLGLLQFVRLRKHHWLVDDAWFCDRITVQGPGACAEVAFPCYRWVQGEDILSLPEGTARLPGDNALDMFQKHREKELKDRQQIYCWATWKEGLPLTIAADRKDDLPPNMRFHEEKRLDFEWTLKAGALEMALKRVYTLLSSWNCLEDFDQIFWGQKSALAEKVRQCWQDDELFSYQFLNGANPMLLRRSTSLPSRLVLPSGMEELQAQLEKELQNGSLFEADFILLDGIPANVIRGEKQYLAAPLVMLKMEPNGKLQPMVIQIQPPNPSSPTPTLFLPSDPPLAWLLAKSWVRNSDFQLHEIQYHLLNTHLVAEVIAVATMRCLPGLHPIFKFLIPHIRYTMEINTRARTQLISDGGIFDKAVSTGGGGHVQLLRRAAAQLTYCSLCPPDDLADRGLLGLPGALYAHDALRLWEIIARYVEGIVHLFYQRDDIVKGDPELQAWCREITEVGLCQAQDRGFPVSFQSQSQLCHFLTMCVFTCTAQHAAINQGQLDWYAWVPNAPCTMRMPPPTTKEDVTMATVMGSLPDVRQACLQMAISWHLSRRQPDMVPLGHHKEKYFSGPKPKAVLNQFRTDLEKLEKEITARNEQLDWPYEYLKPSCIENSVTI
# About 6,100 (1.1%) of roughly 580,000 compounds were called active. Inconclusive means that the source gave no clear call. Such entries were picked first, then a sample of the others. Calls come from the whole dose curve; as a rule, active = well fitted inhibition curve with a large enough effect; inconclusive = small, poorly fitted or top-dose-only effect, or another doubt; inactive = no such curve, though single readings can be large or run the other way. A potency beside an inconclusive call is a rough fit, not a confirmed value.
# Target: Polyunsaturated fatty acid lipoxygenase ALOX12 (Homo sapiens) (UniProt P18054)
# Assay: Primary qHTS assay for inhibitors of human arachidonate 12S-lipoxygenase (ALOX12): Round 2
# Conditions: purified 12hLO, xylenol orange hydroperoxide absorbance; activity change, negative = inhibition: at 108 µM (top of the series) unless noted
# Outline: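 Purified human 12hLO (150 nM final) in 25 mM Hepes, 0.01% Triton X-100, pH 7.0 was preincubated 15 min at room temperature with compound. Then 40 uM arachidonic acid was added, 30 min. Hydroperoxide was read by Fe-XO absorbance ratio 573/405 nm.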
# % is set by controls: 0 for no effect and ±100 for the full control effect; potency is the fitted concentration of half-maximal effect.
SMILES,Potency,"activity change, negative = inhibition"
CCCn1c(SCC(=O)NC)nc2sc3c(c2c1=O)CCC3,inactive,
CCOC(=O)c1[nH]c2ccc(OC)cc2c1NC(=O)CCN1CCC(C)CC1,"inconclusive: 56.2 µM [inhibitor, partial curve, poor fit]",
CCOC(=O)C1CCN(S(=O)(=O)c2ccc(-n3cnnn3)c(C)c2)CC1,inactive,
COc1cc(NC(=O)CC2=C3CCCCC3NC2=O)cc(OC)c1 (centres undefined),inactive,
O=C(COC(=O)c1ccc(O)cc1O)Nc1ccc(Cl)cn1,"inconclusive: 50.1 µM [inhibitor, partial curve, poor fit]",
CCOC(=O)c1nc(NNC(=O)c2ccc([N+](=O)[O-])cc2)sc1C,"inconclusive: 35.5 µM [inhibitor, partial curve, poor fit]",
O=C(CSc1ccc2ccccc2c1)NCCCN1CCCC1=O,"inconclusive: 39.8 µM [inhibitor, partial curve, poor fit]",
CC1(C)CNc2cc(N)ccc2S1,"inconclusive: 44.7 µM [inhibitor, partial curve]",
Cc1cccc(C)c1NC(=S)NCCc1ccc(O)c(O)c1,active: 35.5 µM,
COC(=O)c1ccc(C2NC(=S)NC(C)=C2C(=O)OC(C)C)cc1 (centres undefined),"inconclusive: 89.1 µM [inhibitor, partial curve, poor fit]",
Cn1c(=O)c2c(nc(NCCO)n2Cc2ccc(Cl)cc2)n(C)c1=O,inactive,
COc1cccc(N2CCN(C(=O)Cn3ncc4c3-c3ccccc3OC4)CC2)c1,inactive,
C[C@H](CO)N1C[C@H](C)[C@H](CN(C)C(=O)c2ccccc2F)Oc2ncc(Br)cc2C1=O,"inconclusive: 28.2 µM [inhibitor, single point]",
Cc1ccc(C(=O)c2cn(CC(=O)Nc3ccc4c(c3)OCCO4)c3nc(C)ccc3c2=O)cc1,"inconclusive: 79.4 µM [inhibitor, partial curve, poor fit]",
COc1ccc(-c2ccc(C(=O)Nc3ccc4c(c3)OCO4)c3occc23)c(C)c1,inactive,
CSc1oc(-c2ccc(F)cc2)nc1S(=O)(=O)c1ccc(Br)cc1,inactive,
CC(Oc1ccc(C=Nc2ccc(N3CCOCC3)cc2)cc1)C(=O)O (centres undefined),"inconclusive: 31.6 µM [inhibitor, partial curve, poor fit]",
O=C(Nc1ccc(Oc2ccccc2)cc1)O[C@@H]1CO[C@H]2[C@@H]1OC[C@@H]2NC(=O)c1ccc(C(F)(F)F)cc1,"inconclusive: 8.91 µM [inhibitor, full curve]",
Cc1cccc(-n2c(=O)c3c4c(sc3n3c(=S)[nH]nc23)CCC4)c1,"inconclusive: 35.5 µM [inhibitor, partial curve]",
CC(=O)Nc1cc(-c2nc3ccccc3o2)ccc1Cl,"inconclusive: 200 µM [inhibitor, partial curve, poor fit]",
CCOC(=O)c1c(-c2ccccc2)nc2ccccn12,inactive,
Cc1ccc(NC2CC(C)NC(=S)N2)cc1 (centres undefined),"inconclusive: 100 µM [inhibitor, single point]",

SMILES,Potency,"activity change, negative = inhibition"
C/C(=N/NC(=S)NC(C)C)c1ccccn1,"inconclusive: 44.7 µM [inhibitor, partial curve, poor fit]",
COc1cc2sc3ccc(-c4ccc(CN5CCOCC5)cc4)cc3c(=O)c2cc1OC,inactive,
Cc1cc(Cl)ccc1NC(=O)COc1ncnc2ccc(Br)cc12,"inconclusive: 63.1 µM [inhibitor, partial curve, poor fit]",
O=C(Cc1ccc(N2CCCC2=O)cc1)N1CCSCC1,inactive,
C/C=C/c1ccc(OCC(O)CNCc2ccc(OC)cc2)c(OC)c1 (centres undefined),"inconclusive: 39.8 µM [inhibitor, partial curve, poor fit]",
Cc1ccc2c(CN3CCC(C(N)=O)CC3)cc(=O)oc2c1C,"inconclusive: 126 µM [inhibitor, single point]",
CCc1ccc(Nc2ccc(C(=O)O)cc2[N+](=O)[O-])cc1,inactive,
COc1ccc2[nH]c(=O)c(-c3noc(-c4ccc(F)cc4)n3)cc2c1,"inconclusive: 39.8 µM [inhibitor, partial curve, poor fit]",
Cc1cc(NC(=O)COC(=O)CCn2c(C)csc2=O)c([N+](=O)[O-])cc1C,inactive,
Fc1ccc(-n2c(Cc3ccccc3)nnc2SCc2ccc(Br)cc2)cc1,"inconclusive: 100 µM [inhibitor, single point]",
Cc1ccsc1C(=O)OCC(=O)c1ccccc1,"inconclusive: 141 µM [inhibitor, single point]",
CCC(NC(=S)NCc1ccc(F)cc1)c1ccc(C(C)C)cc1 (centres undefined),"inconclusive: 39.8 µM [inhibitor, partial curve, poor fit]",
COc1ccc(CNc2ncncc2-c2ccoc2)c(OC)c1,"inconclusive: 17.8 µM [inhibitor, full curve, poor fit]",
Cc1nc2ccc(NC(=S)N3CCOCC3)cc2nc1C,"inconclusive: 39.8 µM [inhibitor, partial curve, poor fit]",
CCN(CC)CCCN(C/C=C/c1ccccc1)C/C=C/c1ccccc1,active: 0.708 µM,
CCOc1ccc(N=Nc2c(=O)[nH]n3c(=O)cc(C)[nH]c23)cc1,inactive,
CCn1nc(C(=O)NC(CC(=O)OC)c2ccc(F)cc2)c2ccccc2c1=O (centres undefined),inactive,
CCOC(=O)c1ccc(NS(=O)(=O)c2ccc3[nH]c(=O)[nH]c3c2)cc1,"inconclusive: 39.8 µM [inhibitor, partial curve, poor fit]",
CCn1c(N2CCN(Cc3ccc([N+](=O)[O-])cc3)CC2)nc2ccccc21,"inconclusive: 28.2 µM [inhibitor, partial curve]",
COc1ccc(C(=O)N[C@@H]2CCC[C@@H]2C(=O)N2CCN(c3cccc(Cl)c3)CC2)cn1,"inconclusive: 4.47 µM [inhibitor, full curve, poor fit]",
O=C(/C=C/c1cc2ccccc2nc1N1CCOCC1)c1cccc(O)c1,active: 15.8 µM,
S=C(NCCCN1CCOCC1)N(Cc1ccccc1)Cc1ccccc1,,inconclusive: -34.8% [inhibitor]

# Molecules from the list above containing fluorine (7):
SMILES,Potency,"activity change, negative = inhibition"
C[C@H](CO)N1C[C@H](C)[C@H](CN(C)C(=O)c2ccccc2F)Oc2ncc(Br)cc2C1=O,"inconclusive: 28.2 µM [inhibitor, single point]",
CSc1oc(-c2ccc(F)cc2)nc1S(=O)(=O)c1ccc(Br)cc1,inactive,
O=C(Nc1ccc(Oc2ccccc2)cc1)O[C@@H]1CO[C@H]2[C@@H]1OC[C@@H]2NC(=O)c1ccc(C(F)(F)F)cc1,"inconclusive: 8.91 µM [inhibitor, full curve]",
COc1ccc2[nH]c(=O)c(-c3noc(-c4ccc(F)cc4)n3)cc2c1,"inconclusive: 39.8 µM [inhibitor, partial curve, poor fit]",
Fc1ccc(-n2c(Cc3ccccc3)nnc2SCc2ccc(Br)cc2)cc1,"inconclusive: 100 µM [inhibitor, single point]",
CCC(NC(=S)NCc1ccc(F)cc1)c1ccc(C(C)C)cc1 (centres undefined),"inconclusive: 39.8 µM [inhibitor, partial curve, poor fit]",
CCn1nc(C(=O)NC(CC(=O)OC)c2ccc(F)cc2)c2ccccc2c1=O (centres undefined),inactive,
